Some of the results follow.
What was measured:
Test in all cases: log2 fold change, soluble protein after heating vs DMSO (PISA); higher = thermal stabilisation; K562 lysate, 10 uM; active = over 0.2 and 3.5 SD of the protein, either way, in both replicates (recomputed)
[1] = compound: CCCS(=O)(=O)Nc1ccc(F)c(C(=O)c2c[nH]c3ncc(-c4ccc(Cl)cc4)cc23)c1F [vemurafenib]
In short: (§1)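 K562 pellets were dounce-homogenised in PBS pH 7.4 containing 1 mM MgCl2, and the crude extract, at 1 mg/mL protein, was exposed to 10 μM compound for 30 min. Aliquots were heated for 3 min across 48°C-58°C, pooled, brought to 0.5% NP-40 at 4°C and spun at 21,000xg for 90 min, with the supernatant taken as soluble protein. TMTpro 16plex LC-MS/MS with equalised channel sums quantified that protein. Values are log-two fold changes in thermal stability relative to solvent controls, taken from duplicates.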

Amino acid sequences for entries named in this document (tags omitted). A change or cut given only in a name is not applied to a line headed by its entry.
UniProt Q92620: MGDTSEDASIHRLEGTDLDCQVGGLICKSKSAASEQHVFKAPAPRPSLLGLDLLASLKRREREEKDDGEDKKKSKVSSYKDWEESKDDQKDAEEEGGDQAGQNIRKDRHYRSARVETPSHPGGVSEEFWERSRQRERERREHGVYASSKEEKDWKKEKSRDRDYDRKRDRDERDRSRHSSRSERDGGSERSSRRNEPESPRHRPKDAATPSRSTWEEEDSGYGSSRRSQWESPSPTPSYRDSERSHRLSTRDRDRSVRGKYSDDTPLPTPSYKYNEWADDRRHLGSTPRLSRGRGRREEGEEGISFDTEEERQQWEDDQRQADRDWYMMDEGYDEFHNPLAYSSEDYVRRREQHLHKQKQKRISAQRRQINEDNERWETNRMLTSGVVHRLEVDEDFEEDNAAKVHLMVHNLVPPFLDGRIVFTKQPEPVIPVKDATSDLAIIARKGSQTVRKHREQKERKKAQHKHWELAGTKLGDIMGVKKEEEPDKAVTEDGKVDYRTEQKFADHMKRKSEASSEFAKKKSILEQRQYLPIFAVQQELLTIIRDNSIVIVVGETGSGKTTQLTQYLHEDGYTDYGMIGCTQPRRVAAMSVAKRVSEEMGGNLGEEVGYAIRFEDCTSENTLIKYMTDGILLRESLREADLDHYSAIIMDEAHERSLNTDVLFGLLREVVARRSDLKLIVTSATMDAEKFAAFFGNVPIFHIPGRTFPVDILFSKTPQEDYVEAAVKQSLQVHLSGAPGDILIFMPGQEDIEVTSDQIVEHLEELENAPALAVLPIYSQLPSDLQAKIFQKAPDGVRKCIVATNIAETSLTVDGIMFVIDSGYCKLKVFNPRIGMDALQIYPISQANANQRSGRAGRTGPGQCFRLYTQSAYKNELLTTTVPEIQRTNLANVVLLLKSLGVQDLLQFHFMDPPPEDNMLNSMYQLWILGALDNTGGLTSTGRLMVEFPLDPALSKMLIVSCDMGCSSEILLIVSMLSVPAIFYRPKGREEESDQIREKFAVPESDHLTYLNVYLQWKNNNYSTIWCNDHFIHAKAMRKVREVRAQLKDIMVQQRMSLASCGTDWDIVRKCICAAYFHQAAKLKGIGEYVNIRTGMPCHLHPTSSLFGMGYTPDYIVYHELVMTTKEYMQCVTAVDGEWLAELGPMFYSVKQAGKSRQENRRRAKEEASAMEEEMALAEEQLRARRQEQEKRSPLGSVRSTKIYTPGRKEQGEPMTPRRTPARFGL
UniProt Q9NVH1: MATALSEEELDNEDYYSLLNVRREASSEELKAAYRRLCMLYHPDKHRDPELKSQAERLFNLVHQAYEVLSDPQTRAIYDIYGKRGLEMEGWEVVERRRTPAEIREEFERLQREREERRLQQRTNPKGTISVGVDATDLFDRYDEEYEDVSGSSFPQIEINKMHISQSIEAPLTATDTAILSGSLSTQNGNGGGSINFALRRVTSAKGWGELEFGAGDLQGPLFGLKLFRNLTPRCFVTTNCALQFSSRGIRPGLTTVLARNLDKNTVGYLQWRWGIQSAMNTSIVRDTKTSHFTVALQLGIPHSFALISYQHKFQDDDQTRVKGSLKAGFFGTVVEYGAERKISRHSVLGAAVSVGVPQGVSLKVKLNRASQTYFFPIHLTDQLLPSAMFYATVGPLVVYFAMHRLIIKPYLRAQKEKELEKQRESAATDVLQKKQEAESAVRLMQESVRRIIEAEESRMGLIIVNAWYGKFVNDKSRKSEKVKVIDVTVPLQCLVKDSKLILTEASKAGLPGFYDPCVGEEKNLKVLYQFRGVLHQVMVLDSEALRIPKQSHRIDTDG
UniProt Q9BTZ2: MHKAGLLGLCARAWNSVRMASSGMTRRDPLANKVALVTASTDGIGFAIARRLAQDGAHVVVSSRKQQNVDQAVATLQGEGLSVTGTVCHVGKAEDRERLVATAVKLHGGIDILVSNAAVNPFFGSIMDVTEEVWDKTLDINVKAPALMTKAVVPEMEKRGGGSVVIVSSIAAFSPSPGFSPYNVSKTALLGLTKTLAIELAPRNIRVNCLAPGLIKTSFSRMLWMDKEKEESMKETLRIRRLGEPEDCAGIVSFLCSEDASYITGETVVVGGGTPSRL
UniProt Q99543: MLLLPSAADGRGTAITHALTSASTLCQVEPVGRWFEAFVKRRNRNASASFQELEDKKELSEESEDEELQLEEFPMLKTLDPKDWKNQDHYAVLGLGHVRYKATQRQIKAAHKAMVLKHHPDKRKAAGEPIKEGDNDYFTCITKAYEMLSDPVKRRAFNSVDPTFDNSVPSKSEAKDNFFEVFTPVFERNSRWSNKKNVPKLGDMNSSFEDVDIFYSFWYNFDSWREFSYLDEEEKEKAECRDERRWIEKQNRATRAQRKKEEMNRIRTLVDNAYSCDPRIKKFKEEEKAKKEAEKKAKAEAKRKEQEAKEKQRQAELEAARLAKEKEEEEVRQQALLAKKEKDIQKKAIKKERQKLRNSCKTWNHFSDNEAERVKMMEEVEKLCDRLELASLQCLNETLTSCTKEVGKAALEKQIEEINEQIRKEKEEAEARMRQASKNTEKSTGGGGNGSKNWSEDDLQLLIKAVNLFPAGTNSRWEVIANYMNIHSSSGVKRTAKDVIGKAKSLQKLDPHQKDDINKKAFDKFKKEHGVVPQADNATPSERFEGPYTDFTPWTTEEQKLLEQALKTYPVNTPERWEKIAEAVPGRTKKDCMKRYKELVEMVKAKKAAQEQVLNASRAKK
UniProt Q8WYQ5: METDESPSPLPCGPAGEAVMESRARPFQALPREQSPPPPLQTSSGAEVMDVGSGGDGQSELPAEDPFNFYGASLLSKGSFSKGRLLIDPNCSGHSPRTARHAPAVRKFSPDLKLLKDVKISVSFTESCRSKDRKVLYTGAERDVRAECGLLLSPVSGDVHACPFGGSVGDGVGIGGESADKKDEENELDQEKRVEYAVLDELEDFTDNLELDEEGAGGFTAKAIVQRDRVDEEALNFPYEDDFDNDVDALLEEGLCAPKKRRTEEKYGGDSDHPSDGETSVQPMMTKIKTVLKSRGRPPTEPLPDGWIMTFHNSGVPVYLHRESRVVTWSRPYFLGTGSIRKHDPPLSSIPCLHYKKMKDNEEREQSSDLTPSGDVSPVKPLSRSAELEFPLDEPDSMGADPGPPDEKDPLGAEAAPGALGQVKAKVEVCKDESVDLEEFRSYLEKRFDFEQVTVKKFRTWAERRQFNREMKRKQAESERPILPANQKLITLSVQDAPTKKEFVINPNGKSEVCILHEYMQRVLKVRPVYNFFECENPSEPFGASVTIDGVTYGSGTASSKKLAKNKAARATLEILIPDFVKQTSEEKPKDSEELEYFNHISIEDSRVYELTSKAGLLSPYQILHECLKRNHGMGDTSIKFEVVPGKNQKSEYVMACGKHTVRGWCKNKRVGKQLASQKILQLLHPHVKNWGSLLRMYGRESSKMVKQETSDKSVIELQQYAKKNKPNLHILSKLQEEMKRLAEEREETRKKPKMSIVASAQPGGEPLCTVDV
UniProt Q96BY6: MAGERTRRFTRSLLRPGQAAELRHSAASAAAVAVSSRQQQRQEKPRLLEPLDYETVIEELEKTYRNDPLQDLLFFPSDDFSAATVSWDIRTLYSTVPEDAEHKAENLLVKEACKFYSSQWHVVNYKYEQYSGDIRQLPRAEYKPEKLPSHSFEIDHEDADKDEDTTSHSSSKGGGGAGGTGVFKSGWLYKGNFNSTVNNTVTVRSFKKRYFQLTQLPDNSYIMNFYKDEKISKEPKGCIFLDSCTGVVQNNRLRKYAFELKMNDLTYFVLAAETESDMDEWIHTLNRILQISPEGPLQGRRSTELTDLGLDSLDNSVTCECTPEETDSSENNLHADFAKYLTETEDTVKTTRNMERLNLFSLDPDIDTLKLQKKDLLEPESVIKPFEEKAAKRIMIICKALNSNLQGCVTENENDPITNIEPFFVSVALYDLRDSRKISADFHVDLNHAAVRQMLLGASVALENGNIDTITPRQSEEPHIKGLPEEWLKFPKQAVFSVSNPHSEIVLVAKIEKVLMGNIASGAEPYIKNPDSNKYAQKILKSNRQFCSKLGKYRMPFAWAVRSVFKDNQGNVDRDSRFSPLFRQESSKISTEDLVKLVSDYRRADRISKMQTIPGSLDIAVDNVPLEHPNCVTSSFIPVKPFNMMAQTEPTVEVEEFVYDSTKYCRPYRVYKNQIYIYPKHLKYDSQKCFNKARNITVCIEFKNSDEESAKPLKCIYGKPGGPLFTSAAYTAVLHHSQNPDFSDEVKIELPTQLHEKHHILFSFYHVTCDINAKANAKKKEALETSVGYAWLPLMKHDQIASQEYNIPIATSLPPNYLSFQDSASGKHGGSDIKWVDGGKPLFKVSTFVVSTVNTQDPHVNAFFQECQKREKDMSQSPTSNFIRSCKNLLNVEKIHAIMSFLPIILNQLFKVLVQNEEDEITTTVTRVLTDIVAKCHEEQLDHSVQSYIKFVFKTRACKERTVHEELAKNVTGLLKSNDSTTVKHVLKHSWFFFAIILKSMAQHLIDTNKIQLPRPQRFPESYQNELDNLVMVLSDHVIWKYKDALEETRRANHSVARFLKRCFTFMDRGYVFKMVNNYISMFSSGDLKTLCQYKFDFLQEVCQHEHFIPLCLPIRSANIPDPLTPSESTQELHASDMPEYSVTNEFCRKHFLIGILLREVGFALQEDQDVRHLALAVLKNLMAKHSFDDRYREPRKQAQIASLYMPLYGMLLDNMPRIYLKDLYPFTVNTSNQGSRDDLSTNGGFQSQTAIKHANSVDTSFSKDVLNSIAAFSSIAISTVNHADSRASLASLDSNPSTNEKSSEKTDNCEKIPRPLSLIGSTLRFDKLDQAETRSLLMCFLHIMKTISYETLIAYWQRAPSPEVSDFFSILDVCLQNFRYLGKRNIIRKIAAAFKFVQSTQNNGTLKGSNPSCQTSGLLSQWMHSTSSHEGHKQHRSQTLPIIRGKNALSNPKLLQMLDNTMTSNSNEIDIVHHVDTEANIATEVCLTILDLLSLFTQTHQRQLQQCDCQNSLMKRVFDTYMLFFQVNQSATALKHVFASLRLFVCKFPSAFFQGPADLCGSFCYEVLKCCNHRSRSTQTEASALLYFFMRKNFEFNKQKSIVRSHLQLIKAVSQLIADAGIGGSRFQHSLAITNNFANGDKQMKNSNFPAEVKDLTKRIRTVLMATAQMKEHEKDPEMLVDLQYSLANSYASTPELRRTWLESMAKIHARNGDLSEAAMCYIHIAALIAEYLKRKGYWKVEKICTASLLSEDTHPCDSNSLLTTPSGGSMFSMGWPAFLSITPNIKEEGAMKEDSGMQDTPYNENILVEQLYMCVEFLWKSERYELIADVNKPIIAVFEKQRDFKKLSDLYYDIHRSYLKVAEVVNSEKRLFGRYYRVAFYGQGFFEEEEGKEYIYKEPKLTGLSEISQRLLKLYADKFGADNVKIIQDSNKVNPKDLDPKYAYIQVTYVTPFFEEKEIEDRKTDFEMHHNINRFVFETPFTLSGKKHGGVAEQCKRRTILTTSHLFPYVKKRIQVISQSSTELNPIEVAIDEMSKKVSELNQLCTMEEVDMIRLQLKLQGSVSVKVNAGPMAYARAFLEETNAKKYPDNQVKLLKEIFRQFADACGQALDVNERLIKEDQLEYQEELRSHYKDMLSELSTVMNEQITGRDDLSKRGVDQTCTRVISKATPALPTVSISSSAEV
UniProt O43143: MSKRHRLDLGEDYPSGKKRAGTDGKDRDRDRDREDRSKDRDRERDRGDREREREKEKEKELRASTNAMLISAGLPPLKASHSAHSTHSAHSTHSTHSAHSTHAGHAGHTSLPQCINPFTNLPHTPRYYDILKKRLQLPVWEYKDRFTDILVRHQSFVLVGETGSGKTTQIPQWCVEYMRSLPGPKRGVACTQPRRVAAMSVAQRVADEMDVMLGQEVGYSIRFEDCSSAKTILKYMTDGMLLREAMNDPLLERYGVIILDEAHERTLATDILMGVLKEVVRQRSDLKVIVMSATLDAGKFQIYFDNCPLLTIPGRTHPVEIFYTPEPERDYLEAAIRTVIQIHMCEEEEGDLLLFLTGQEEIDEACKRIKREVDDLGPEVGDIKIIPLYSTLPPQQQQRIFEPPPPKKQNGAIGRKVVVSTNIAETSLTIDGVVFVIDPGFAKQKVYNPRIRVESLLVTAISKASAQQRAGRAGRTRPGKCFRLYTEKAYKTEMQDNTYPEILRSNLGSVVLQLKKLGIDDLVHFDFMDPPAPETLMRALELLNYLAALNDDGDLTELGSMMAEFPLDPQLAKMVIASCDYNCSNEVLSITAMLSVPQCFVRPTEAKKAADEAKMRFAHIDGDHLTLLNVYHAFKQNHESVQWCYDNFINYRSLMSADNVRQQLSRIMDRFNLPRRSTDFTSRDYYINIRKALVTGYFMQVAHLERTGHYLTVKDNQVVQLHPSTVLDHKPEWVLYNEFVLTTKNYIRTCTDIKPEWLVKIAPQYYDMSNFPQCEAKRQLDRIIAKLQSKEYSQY

[2] = compound: CCCS(=O)(=O)Nc1ccc(F)c(C(=O)c2c[nH]c3ncc(Cl)cc23)c1F
In short: as §1

[3] = compound: CCN(CCCOc1ccc2c(Nc3cc(CC(=O)Nc4cccc(F)c4)[nH]n3)ncnc2c1)CCOP(=O)(O)O [barasertib]
In short: as §1

[4] = compound: CC[C@@H]1C(=O)N(C)c2cnc(Nc3ccc(C(=O)NC4CCN(C)CC4)cc3OC)nc2N1C1CCCC1
In short: as §1

[5] = compound: CC[C@@H]1C(=O)N(C)c2cnc(Nc3ccc(C(=O)N[C@H]4CC[C@H](N5CCN(CC6CC6)CC5)CC4)cc3OC)nc2N1C(C)C [volasertib]
In short: as §1

[6] = compound: CCn1c(C(=O)N(C2CC2)C2CC2)cc2c3c(ncn3C)c(Nc3cc(C)n(C)n3)nc21
In short: as §1

[7] = compound: CCn1cc(-c2ccnc3[nH]c(-c4cccc(CN(C)C)c4)cc23)c(-c2ccc(NC(=O)N(C)C)cc2)n1
In short: as §1

[8] = compound: CN1CCC(CNc2ccc3ncc(-c4cccc(OC(F)(F)F)c4)n3n2)CC1
In short: as §1

[9] = compound: CN1CCN(CCOc2cc(OC3CCOCC3)c3c(Nc4c(Cl)ccc5c4OCO5)ncnc3c2)CC1 [saracatinib]
In short: as §1

[10] = compound: CN1CCN(c2nc(C3=C(c4c[nH]c5ccccc45)C(=O)NC3=O)c3ccccc3n2)CC1 [sotrastaurin]
In short: as §1

[11] = compound: CN1CC[C@H](c2c(O)cc(O)c3c(=O)cc(-c4ccccc4Cl)oc23)[C@H](O)C1 [alvocidib]
In short: as §1

[12] = compound: CN1CCc2c(c3ccccc3n2Cc2ccc(C(=O)NO)cc2)C1 [Tubastatin A]
In short: as §1

[13] = compound: CNC(=O)C1=CC=CC=C1NC2=NC(=NC=C2Cl)NC3=C(C=C(C=C3)N4CCOCC4)OC
In short: as §1

[14] = compound: CNC(=O)c1ccc(Nc2ncc(C(F)(F)F)c(NCc3nccnc3N(C)S(C)(=O)=O)n2)cc1 [defactinib]
In short: as §1

[15] = compound: CNc1nc(-c2ccc3c(N)n[nH]c3c2)cc(N2C[C@@H](C(=O)NC3CCCCC3)CC[C@H]2C)n1
In short: as §1

[16] = compound: COC(=O)N[C@@H](C)CNc1nccc(-c2cn(C(C)C)nc2-c2cc(Cl)cc(NS(C)(=O)=O)c2F)n1 [encorafenib]
In short: as §1

[17] = compound: COC(=O)[C@H](CCSC)NC(=O)C1=C(C=C(C=C1)NC[C@H](CS)N)C2=CC=CC=C2
In short: as §1

[18] = compound: COc1cc(Nc2ncc3c(n2)-c2ccc(Cl)cc2C(c2c(F)cccc2OC)=NC3)ccc1C(=O)O [alisertib]
In short: as §1

[19] = compound: COc1cc2nc(-c3cc(F)ccc3O)nc(N[C@@H]3CNC[C@H]3C(C)(C)O)c2cc1OC
In short: as §1

[20] = compound: COc1cc2ncnc(Nc3ccc(F)c(Cl)c3)c2cc1OCCCN1CCOCC1 [gefitinib]
In short: as §1

Target	log2 fold change [1]	log2 fold change [2]	log2 fold change [3]	log2 fold change [4]	log2 fold change [5]	log2 fold change [6]	log2 fold change [7]	log2 fold change [8]	log2 fold change [9]	log2 fold change [10]	log2 fold change [11]	log2 fold change [12]	log2 fold change [13]	log2 fold change [14]	log2 fold change [15]	log2 fold change [16]	log2 fold change [17]	log2 fold change [18]	log2 fold change [19]	log2 fold change [20]
DHX38 (UniProt Q92620)	inactive: 0.018	inactive: 0.025	inactive: -0.02	inactive: 0.051	inactive: -0.022	inactive: -0.011	inactive: -0.014	inactive: 0.019	inactive: -0.008	inactive: 0.011	inactive: 0.007	inactive: 0.006	inactive: 0.033	inactive: 0.034	inactive: 0.005	inactive: 0	inactive: 0.043	inactive: 0.013	inactive: -0.032	inactive: -0.02
DNAJC11 (UniProt Q9NVH1)	inactive: 0.004	inactive: 0.005	inactive: 0.046	inactive: -0.023	inactive: 0.01	inactive: 0.013	inactive: -0.015	inactive: -0.041	inactive: 0.028	inactive: -0.009	inactive: 0.008	inactive: -0.019	inactive: -0.011	inactive: -0.024	inactive: 0.004	inactive: 0.006	inactive: -0.035	inactive: 0.008	inactive: -0.03	inactive: -0.065
DHRS4 (UniProt Q9BTZ2)	inactive: 0.014	inactive: -0.017	inactive: -0.03	inactive: 0.019	inactive: 0.027	inactive: -0.037	inactive: -0.025	inactive: 0.024	inactive: -0.042	inactive: 0.015	inactive: 0.02	inactive: 0.012	inactive: 0.071	inactive: 0.036	inactive: -0.059	inactive: 0.031	inactive: -0.005	inactive: 0.021	inactive: 0	inactive: 0.013
DIDO1 (UniProt Q9BTC0)	inactive: 0.028	inactive: 0.017	inactive: -0.035	inactive: -0.015	inactive: 0.006	inactive: -0.02	inactive: 0.019	inactive: 0.001	inactive: 0.012	inactive: 0.026	inactive: -0.027	inactive: -0.032	inactive: -0.019	inactive: 0.003	inactive: 0.053	inactive: 0.069	inactive: 0.043	inactive: -0.07	inactive: -0.025	inactive: 0.025
DNAJC2 (UniProt Q99543)	inactive: -0.085	inactive: 0.032	inactive: -0.018	inactive: -0.073	inactive: -0.023	inactive: 0.02	inactive: -0.042	inactive: -0.054	inactive: 0.003	inactive: 0.03	inactive: 0.003	inactive: -0.187	inactive: 0.022	inactive: 0.024	inactive: -0.089	inactive: -0.014	inactive: 0.142	inactive: -0.018	inactive: -0.031	inactive: -0.022
DGCR8 (UniProt Q8WYQ5)	inactive: -0.022	inactive: 0.031	inactive: 0.062	inactive: -0.046	inactive: -0.021	inactive: 0.015	inactive: -0.052	inactive: 0.066	inactive: 0.042	inactive: 0.04	inactive: 0.009	inactive: -0.115	inactive: -0.009	inactive: -0.046	inactive: 0.042	inactive: 0.018	inactive: 0.081	inactive: 0.022	inactive: 0.027	inactive: -0.034
DOCK10 (UniProt Q96BY6)	inactive: 0.095	inactive: -0.008	inactive: -0.054	inactive: 0.085	inactive: 0.027	inactive: 0.043	active: -0.747	inactive: 0.387	inactive: 0.001	inactive: 0.007	inactive: -0.354	inactive: -0.028	inactive: 0.208	inactive: 0.133	inactive: 0.046	inactive: 0.067	inactive: -0.002	inactive: 0.05	inactive: -0.042	inactive: 0.084
DHX15 (UniProt O43143)	inactive: 0	inactive: 0.023	inactive: 0	inactive: -0.019	inactive: -0.004	inactive: -0.031	inactive: 0.009	inactive: 0.034	inactive: -0.006	inactive: 0.017	inactive: 0.004	inactive: 0.029	inactive: -0.015	inactive: -0.022	inactive: 0.004	inactive: 0.001	inactive: -0.016	inactive: 0.017	inactive: 0.005	inactive: 0.033

Reference: the supplement of paper PMC10849652
